These are yes or no findings as the source states them, for the method shown. In cells and extracts the contact can be indirect. Sequences can lack the tags named with a protein.

Sequences of proteins named here, by UniProt entry; tags and fusion partners are left off.
UniProt P55884: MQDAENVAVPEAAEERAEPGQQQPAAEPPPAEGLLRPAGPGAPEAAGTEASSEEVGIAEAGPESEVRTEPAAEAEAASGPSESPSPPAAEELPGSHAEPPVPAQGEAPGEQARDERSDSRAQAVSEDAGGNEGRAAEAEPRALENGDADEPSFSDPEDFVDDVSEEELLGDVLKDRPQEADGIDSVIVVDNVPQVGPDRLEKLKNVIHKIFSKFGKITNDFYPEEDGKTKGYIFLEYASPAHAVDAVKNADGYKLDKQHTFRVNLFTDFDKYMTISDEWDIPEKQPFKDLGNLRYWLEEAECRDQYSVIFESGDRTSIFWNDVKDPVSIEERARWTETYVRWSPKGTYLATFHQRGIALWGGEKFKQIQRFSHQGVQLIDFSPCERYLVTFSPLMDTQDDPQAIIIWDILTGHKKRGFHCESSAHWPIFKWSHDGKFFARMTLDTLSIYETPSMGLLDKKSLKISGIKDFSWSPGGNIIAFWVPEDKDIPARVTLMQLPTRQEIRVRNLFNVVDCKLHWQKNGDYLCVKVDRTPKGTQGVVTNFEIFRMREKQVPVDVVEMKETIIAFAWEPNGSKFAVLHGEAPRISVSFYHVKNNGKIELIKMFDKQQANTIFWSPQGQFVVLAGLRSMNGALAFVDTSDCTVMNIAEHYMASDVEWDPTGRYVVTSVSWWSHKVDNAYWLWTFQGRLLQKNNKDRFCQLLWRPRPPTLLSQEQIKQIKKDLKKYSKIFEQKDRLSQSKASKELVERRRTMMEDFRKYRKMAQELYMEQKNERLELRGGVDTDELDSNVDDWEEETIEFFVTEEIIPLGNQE

This assay has as its target T1, Flag-HPD (4-hydroxyphenylpyruvate dioxygenase with N-terminal Flag tag) (human) (UniProt P32754).
T1 sequence: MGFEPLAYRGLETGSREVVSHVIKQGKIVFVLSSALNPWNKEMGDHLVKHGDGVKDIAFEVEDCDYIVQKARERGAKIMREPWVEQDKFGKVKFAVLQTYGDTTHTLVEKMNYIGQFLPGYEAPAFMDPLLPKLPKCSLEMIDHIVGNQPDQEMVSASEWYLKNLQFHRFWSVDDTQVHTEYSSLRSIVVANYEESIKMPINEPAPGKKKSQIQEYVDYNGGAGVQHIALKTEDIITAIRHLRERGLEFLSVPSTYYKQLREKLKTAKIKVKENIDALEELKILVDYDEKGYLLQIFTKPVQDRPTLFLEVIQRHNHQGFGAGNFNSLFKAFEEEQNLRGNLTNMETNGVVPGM
Description: co-IP; Flag-HPD immunoprecipitate tested for RPS10, EIF3A and EIF3B (Figure S3G,H); cell line and conditions not stated.

Regarding EIF3B (from UniProt P55884 1-814), the binding entry is “no binding”.

Values taken from paper PMC12376507.
